Data published in publication PMC5789003.
These are yes or no findings as the source states them, for the method shown. Some entries that bind do so weakly or less than the wild type.

Legend:
[1] = molecular target: Mfa2 (anchor protein of the Mfa1 fimbria), wild type, in P. gingivalis (Porphyromonas gingivalis) (UniProt B2RHG2); assay: condition: only with 2-mercaptoethanol in the SDS-PAGE buffer; SDS-PAGE and immunoblot of partially heat-denatured fimbriae (ladder-like pattern)
[2] = molecular target: T1, Mfa1 (shaft protein of the Mfa1 fimbria), wild type, in P. gingivalis (Porphyromonas gingivalis) (UniProt B2RHG1); assay: as above
T1 sequence: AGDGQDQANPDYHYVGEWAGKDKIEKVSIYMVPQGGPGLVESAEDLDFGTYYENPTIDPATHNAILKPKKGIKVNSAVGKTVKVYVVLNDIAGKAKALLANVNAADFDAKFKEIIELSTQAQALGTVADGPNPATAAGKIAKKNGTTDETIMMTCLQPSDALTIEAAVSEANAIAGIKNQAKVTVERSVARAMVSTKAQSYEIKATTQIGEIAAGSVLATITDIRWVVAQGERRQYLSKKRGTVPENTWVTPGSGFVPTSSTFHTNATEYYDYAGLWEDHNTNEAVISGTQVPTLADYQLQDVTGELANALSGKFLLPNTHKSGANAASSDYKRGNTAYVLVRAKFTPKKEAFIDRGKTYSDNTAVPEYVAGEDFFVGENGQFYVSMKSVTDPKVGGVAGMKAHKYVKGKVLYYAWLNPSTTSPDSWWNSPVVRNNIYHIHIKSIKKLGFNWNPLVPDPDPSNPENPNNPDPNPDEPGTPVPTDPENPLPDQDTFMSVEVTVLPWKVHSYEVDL

[3] = molecular target: T1, Mfa1 (shaft protein of the Mfa1 fimbria), wild type, in P. gingivalis (Porphyromonas gingivalis); assay: SDS-PAGE and immunoblot of partially heat-denatured fimbriae (ladder-like pattern)

B1: Mfa2 (anchor protein of the Mfa1 fimbria), wild type, in P. gingivalis (protein, UniProt B2RHG2 29-324)
chain: CDKMIYDNYDDCPRGVYVNFYSQTECAENPSYPAEVARLNVYAFDKDGILRSANVFEDVQLSAAKEWLIPLEKDGLYTIFAWGNIDDHYNIGEIKIGETTKQQVLMRLKQDGKWATNIDGTTLWYATSPVVELKNMEDGADQYIHTRANLREYTNRVTVSVDSLPHPENYEIKLASSNGSYRFDGTVAKADSTYYPGETKVVGDSTCRAFFTTLKLESGHENTLSVTHKPTGREIFRTDLVGAILSSQYAQNINLRCINDFDIRLVAHHCNCPDDTYVVVQIWINGWLIHSYEIEL
modifications: lipidated cysteine (Cys29); disulphide bonds Cys54-Cys285 and Cys298-Cys300
binding [1]: no binding | binding [2]: no binding | binding [3]: binds
